Values from PubChem BioAssay AID743454 (Peter MacCallum Cancer Centre, 2014).

Screen: 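Knock-downs lowering viability or raising caspase 3/7 activity in vorinostat-treated resistant cells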 (primary screen)
Cells: human HCT116-VR colon cancer cells, selected for vorinostat resistance
Reagents: siRNA pool against human genes, 40 nM siRNA pool
Timing: vorinostat for 24 h, read-out about 72 h after transfection
Treatment: vorinostat at 2.5 µM final
Read-out: 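Two measures, CellTiter-Fluor viability and luminescent caspase 3/7 activity, each as fold change against same-plate mock wells, mean of duplicates, then screen-wide robust z-score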
Scale: viability robust z-score: higher = more viable cells than screen typical; caspase robust z-score: higher = more caspase 3/7 activity than screen typical
Rule for the call: 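a knock-down is a hit when classed RV1 or RV2 for lowered viability, or CA1 or CA2 for caspase activation; those lethal without drug were dropped; hits were retested singly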
Shown is a random part of about 18,000 deposited reagents. 450 of all reagents (2.5%) count as active. 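Single biological run; no consistent viability z cut-off exists, so the class columns, not z-scores, define the calls.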

The first 2 records, to show the layout:
gene	viability hit class	caspase hit class	viability robust z-score	caspase robust z-score	call
TTC21B	no change	no change	-0.88	-0.73	inactive
RNASET2	no change	no change	1.21	-0.14	inactive

Results, from the first entry:
gene	viability hit class	caspase hit class	viability robust z-score	caspase robust z-score	call
TTC21B	no change	no change	-0.88	-0.73	inactive
RNASET2	no change	no change	1.21	-0.14	inactive
ARHGAP11A	no change	no change	0.7	0.93	inactive
ESAM	no change	no change	-0.74	1.34	inactive
FBXO9	no change	no change	-0.89	-1.25	inactive
FANCM	no change	no change	-0.76	-1.06	inactive
UBQLN3	no change	no change	0.94	-1.13	inactive
NIFK	no change	no change	-2.47	0.4	inactive
PHF5A	no change	no change	-1.79	0.92	inactive
OR1A1	no change	no change	-0.86	1.34	inactive
SYTL2	no change	no change	-1.71	0.96	inactive
TAAR6	no change	no change	-1.02	1.04	inactive
IMPDH2	no change	no change	-0.09	0.78	inactive
PRKAA2	no change	CA1 (caspase activation)	-2.11	5.29	active
SUGT1P4-STRA6LP-CCDC180	no change	no change	-0.66	1.87	inactive
LMCD1	no change	no change	-0.3	0.03	inactive
VSTM2L	no change	no change	-1.65	-1.31	inactive
DAPK2	no change	no change	0.65	-0.46	inactive
DCTN5	no change	no change	-0.2	-0.8	inactive
CCNI2	no change	no change	0.31	1.73	inactive
NUDT8	no change	no change	-0.5	-0.84	inactive
MRM2	no change	no change	1.01	0.1	inactive
PBXIP1	no change	no change	0.11	0.29	inactive
